These results are taken from article PMC10651859.

By UniProt entry, the sequences of proteins in these tests, tags left out. Where a name states a change or a piece, a line headed by the entry shows the natural chain unless it says otherwise. Residues count along the entry.
UniProt Q04609: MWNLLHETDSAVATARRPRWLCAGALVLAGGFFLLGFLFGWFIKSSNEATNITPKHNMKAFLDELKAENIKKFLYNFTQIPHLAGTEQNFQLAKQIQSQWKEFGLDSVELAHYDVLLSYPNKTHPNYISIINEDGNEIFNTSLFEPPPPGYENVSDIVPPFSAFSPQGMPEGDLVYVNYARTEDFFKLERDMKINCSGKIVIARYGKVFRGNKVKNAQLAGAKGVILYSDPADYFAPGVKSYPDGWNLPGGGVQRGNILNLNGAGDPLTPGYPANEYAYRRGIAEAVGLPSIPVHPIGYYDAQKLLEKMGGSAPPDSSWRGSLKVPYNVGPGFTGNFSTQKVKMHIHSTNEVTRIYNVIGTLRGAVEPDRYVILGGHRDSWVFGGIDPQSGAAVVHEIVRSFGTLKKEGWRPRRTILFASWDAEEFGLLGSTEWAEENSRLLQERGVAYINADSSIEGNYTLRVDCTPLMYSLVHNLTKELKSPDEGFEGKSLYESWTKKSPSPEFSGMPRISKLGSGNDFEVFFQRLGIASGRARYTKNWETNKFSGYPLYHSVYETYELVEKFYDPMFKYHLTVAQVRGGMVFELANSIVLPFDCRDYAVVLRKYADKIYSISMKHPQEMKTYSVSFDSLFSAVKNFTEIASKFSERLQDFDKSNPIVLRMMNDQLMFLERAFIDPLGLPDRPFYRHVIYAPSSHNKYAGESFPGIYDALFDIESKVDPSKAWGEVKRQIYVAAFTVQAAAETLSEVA
UniProt P02769, 25-607: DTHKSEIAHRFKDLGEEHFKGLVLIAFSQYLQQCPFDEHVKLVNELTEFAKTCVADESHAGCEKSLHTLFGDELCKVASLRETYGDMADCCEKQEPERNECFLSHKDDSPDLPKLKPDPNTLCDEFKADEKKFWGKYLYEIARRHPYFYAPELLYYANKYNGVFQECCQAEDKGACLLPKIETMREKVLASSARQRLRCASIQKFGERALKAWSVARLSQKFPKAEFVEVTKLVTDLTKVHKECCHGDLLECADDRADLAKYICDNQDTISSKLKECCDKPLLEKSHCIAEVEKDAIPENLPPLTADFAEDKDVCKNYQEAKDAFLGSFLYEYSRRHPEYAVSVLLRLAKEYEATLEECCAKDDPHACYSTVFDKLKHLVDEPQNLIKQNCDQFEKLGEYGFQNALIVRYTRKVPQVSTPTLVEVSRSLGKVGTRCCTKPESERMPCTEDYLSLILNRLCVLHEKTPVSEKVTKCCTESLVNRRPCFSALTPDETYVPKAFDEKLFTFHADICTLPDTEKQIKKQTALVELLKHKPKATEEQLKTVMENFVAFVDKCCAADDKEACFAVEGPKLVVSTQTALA

Negatives hold for the conditions tested. For some assays here: Construct, isoform or probe ends are uncertain for at least one entry. For some assays here: Where cells or extracts were used, other partners may take part.

For data set [1], the target named is PSMA in LNCaP SEV protein extract (UniProt Q04609). In words: AuNP aggregate disassembly (plasmon peak shift). As to conditions: Rev1 3' C3 thiol, Rev2 5' C6 thiol, 1x PBS pH 7.4, 37 C for 30 min stated for the initial 50 pM hrPSMA screening, protein in an extract, label: 13 nm gold nanoparticles on Rev1 and Rev2, folded or branched DNA.
Another data set has as its target BSA (UniProt P02769). In words: AuNP aggregate disassembly (DLS). As to conditions: BSA up to 500 uM; Rev1 3' C3 thiol; Rev2 5' C6 thiol; 1x PBS pH 7.4; 37 C for 30 min stated for the initial 50 pM hrPSMA screening; commercial protein; label: 13 nm gold nanoparticles on Rev1 and Rev2; folded or branched DNA.
The target in data set [2] is PSMA on intact LNCaP SEVs (UniProt Q04609). The experiment in a line: AuNP aggregate disassembly (plasmon peak shift). Particulars: intact SEVs, authors suggest steric hindrance by membrane; Rev1 3' C3 thiol; Rev2 5' C6 thiol; 1x PBS pH 7.4; 37 C for 30 min stated for the initial 50 pM hrPSMA screening; native protein; label: 13 nm gold nanoparticles on Rev1 and Rev2; folded or branched DNA.

For “CTGTGACTCATCTGTGAAGGGCGGCGTTTTATATGTTACCGTCTAAGTACTCTGTTCCGCGCCGTGTGTTG / CACAGATGAGTCACAG / AAAACGCCGCCCTT [Control:Rev1:Rev2 (C-AuNPs-Aggregate)]”, the binding result (in data set [1] (LNCaP SEV extract); in the data set with BSA) was “no binding” each time.
As for “CTGTGACTCATCTGTGAAGGGCGGCGTTTTCGCTTTTGCGTTTTGGGTCATCTGCTTACGATAGCAATGCT / CACAGATGAGTCACAG / AAAACGCCGCCCTT [aPSMA:Rev1:Rev2 (aPSMA-AuNPs-Aggregate)]”, the binding result is “binds” in data set [1] (significant from 50 pM PSMA equivalent, PSMA-negative PC-3 extract gave no change); “no binding” in data set [2]; “no binding” in the data set with BSA.
